Results on one substance are retold here after article PMC5372545.

By UniProt entry, the sequences of proteins in these tests, tags left out.
UniProt P21333: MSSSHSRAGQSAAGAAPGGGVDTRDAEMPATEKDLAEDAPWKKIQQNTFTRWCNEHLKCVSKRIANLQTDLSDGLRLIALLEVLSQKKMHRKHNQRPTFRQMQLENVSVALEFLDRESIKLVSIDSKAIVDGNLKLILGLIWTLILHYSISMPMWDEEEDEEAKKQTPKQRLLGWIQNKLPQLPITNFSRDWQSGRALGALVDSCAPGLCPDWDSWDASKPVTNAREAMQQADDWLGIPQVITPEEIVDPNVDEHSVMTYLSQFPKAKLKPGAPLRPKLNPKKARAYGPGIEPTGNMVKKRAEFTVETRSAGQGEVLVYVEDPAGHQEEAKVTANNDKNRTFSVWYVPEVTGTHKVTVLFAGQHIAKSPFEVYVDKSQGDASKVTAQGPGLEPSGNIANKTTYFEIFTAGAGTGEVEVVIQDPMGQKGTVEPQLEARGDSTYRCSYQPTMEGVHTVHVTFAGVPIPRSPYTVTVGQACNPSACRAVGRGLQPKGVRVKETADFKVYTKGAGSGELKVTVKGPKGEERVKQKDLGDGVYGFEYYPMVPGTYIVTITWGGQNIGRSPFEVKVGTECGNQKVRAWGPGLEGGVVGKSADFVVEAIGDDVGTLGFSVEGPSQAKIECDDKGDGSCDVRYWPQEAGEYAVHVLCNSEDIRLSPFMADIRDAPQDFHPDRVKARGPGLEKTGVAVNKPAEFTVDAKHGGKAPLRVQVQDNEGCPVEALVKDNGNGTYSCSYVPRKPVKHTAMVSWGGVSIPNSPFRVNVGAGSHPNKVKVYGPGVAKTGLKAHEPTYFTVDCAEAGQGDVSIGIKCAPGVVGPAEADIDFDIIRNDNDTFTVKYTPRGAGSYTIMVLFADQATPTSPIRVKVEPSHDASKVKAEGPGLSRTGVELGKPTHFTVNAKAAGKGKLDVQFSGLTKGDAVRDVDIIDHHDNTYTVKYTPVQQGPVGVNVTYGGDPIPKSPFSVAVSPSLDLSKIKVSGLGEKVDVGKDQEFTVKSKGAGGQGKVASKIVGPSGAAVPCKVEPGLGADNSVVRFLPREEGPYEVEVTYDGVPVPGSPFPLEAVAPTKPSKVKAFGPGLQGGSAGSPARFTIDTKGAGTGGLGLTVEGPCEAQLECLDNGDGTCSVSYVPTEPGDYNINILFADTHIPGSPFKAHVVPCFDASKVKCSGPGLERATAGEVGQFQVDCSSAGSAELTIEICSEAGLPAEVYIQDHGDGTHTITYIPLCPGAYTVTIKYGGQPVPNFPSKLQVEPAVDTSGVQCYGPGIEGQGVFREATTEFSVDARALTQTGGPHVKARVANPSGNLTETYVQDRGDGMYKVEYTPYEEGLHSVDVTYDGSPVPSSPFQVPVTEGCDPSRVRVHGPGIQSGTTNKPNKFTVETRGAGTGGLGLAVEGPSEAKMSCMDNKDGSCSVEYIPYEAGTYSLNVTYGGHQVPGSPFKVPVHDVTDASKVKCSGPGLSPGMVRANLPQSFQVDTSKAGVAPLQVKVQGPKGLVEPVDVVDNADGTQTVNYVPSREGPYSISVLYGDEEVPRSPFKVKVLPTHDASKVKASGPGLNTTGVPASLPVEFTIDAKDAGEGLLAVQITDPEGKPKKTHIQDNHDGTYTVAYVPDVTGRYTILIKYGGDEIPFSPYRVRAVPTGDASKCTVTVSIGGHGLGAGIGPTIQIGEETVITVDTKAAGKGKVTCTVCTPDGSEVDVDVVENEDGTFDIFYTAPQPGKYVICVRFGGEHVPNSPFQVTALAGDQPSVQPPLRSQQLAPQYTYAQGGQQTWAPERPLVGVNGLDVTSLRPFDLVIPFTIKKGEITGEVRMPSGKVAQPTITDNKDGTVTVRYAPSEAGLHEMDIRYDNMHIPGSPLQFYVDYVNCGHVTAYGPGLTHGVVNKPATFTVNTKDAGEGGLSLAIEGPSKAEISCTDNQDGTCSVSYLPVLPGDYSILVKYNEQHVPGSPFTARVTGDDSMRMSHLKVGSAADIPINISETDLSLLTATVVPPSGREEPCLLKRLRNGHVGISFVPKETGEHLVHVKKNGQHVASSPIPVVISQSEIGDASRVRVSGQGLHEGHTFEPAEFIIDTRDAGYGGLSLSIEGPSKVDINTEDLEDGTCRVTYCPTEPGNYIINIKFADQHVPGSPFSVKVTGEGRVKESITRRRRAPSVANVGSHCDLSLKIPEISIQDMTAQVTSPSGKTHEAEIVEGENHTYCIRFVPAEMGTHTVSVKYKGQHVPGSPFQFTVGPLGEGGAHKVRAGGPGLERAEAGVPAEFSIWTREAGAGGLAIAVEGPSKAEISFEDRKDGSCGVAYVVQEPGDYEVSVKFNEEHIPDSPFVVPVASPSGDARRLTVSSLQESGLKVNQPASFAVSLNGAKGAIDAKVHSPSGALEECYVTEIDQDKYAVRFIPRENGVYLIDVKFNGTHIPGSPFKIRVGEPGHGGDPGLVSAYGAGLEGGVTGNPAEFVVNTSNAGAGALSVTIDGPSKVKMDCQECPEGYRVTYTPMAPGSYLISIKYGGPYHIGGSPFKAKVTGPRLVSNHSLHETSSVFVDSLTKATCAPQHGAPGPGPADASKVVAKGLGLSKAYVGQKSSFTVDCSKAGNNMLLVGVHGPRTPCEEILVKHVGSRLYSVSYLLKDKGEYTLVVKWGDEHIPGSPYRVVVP

The target in the assay is T1, Flag-RNase L (UniProt Q05823).
T1 sequence: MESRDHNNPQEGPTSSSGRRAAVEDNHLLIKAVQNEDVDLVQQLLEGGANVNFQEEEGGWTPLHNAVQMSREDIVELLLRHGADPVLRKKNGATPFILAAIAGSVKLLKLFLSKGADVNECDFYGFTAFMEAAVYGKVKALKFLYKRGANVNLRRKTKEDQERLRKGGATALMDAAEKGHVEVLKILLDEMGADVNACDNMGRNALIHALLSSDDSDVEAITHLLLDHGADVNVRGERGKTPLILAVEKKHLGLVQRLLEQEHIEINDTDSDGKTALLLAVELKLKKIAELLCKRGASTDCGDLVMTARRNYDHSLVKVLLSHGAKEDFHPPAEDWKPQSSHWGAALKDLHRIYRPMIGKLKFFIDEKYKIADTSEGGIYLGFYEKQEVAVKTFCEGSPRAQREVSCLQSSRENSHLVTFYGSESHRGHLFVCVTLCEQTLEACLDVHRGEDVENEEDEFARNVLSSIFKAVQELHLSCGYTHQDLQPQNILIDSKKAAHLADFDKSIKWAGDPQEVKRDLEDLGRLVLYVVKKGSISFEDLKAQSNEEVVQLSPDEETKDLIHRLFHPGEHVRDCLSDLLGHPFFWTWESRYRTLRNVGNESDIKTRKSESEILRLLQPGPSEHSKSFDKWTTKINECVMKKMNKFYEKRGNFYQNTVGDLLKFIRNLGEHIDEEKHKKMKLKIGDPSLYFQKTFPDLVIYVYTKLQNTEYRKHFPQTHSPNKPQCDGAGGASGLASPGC
Put plainly: co-IP; LNCaP cells expressing Flag-RNase L, untreated (vehicle); lysis in 0.5% NP-40, 90 mM KCl, 5 mM magnesium acetate, 20 mM Tris pH 7.5; Flag-M2 agarose beads or control IgG beads, 4 °C; Western blot for AR and FLNA; cells treated with R1881 (1 nM, 1 h or 24 h) showed reduced FLNA.

Results are given in words; binding and its absence hold for the method and conditions named. In cells and extracts the contact can be indirect. Some results given as binding are weak or reduced against the parent protein; the word gives no strength. Tags and fused reporters may be left off the sequences shown.

For the substance Filamin A (from UniProt P21333 1-2647), the binding result is listed as “binds”.
